Data published in US20170189504A1, “NOVEL PEPTIDES AND COMBINATION OF PEPTIDES FOR USE IN IMMUNOTHERAPY AGAINST VARIOUS CANCERS” (immatics biotechnologies GmbH, priority 2015, published 2017).

Test system: HLA-A*02
Test: Identification and relative LC-MS quantitation of HLA-A*02-presented tumor-associated peptides on tissue samples (presentation profiles, Tables 13A, 13B, 15, FIG. 1)
Parameters: species or system human; key to Presentation score NHL / Presentation score CLL / Presentation score BRCA / Presentation score AML / Presentation score GB / Presentation score NSCLC / Presentation score GBC_CCC / Presentation score UEC / Presentation score MEL / Presentation score OSCAR / Presentation score GC / Presentation score UBC / Presentation score OC / Presentation score RCC / Presentation score CRC / Presentation score PCA / Presentation score HCC / Presentation score PC / Presentation score SCLC: specifically presented on tumors (++++); very highly over-presented on tumors compared to a panel of normal tissues (+++); highly over-presented on tumors compared to a panel of normal tissues (++); over-presented on tumors compared to a panel of normal tissues (+)
Conditions: for Presentation score AML: acute myeloid leukemia (N = 18) vs panel of normal tissues (N = 262); for Presentation score CLL: chronic lymphocytic leukemia (N = 17) vs panel of normal tissues (N = 262); for Presentation score GBC_CCC: gallbladder adenocarcinoma and cholangiocarcinoma (N = 6) vs panel of normal tissues (N = 262); for Presentation score NHL: non-Hodgkin lymphoma (N = 18) vs panel of normal tissues (N = 262); for Presentation score OC: ovarian cancer (N = 20) vs panel of normal tissues (N = 262); for Presentation score UEC: uterine cancer (N = 15) vs panel of normal tissues (N = 262); for Peptide Presentation on cancer entities: HLA-A*02-binding tumor-associated peptides; for Presentation score NSCLC: non-small cell lung cancer (N = 90) vs panel of normal tissues (N = 262); for Presentation score GB: glioblastoma (N = 41) vs panel of normal tissues (N = 262); for Presentation score HCC: hepatocellular carcinoma (N = 16) vs panel of normal tissues (N = 262); for Presentation score BRCA: breast cancer (N = 17) vs panel of normal tissues (N = 262); for Presentation score CRC: colorectal cancer (N = 28) vs panel of normal tissues (N = 262); for Presentation score OSCAR: esophageal cancer, including cancer of the gastric-esophageal junction (N = 17) vs panel of normal tissues (N = 262); for Presentation score GC: gastric cancer (N = 29) vs panel of normal tissues (N = 262); for Presentation score UBC: urinary bladder cancer (N = 16) vs panel of normal tissues (N = 262); for Presentation score MEL: melanoma (N = 7) vs panel of normal tissues (N = 262)
[1] = Table 13A, cancer entities on which the peptide was found presented
[2] = Table 13B, presentation on additional cancer entities
[3] = FIG. 1, A*02 positive samples, only samples with presentation shown

For “140 (VLLEELEAL; listed as Homo sapiens) [compound 140]”, the “Presentation score AML” value (HLA-A*02 peptides) was “++”, the “Presentation score CLL” value (HLA-A*02 peptides) was “++” and the “Presentation score GBC_CCC” value (HLA-A*02 peptides) was “+”. The “Presentation score NHL” value (HLA-A*02 peptides) was “+”, the “Presentation score OC” value (HLA-A*02 peptides) was “+” and the “Presentation score UEC” value (HLA-A*02 peptides) was “+++”. The “Peptide Presentation on cancer entities” value [1] was “NSCLC, PCA, CLL, OSCAR, OC, SCLC, UEC, BRCA, GBC_CCC, MEL, AML, NHL” and the “Peptide Presentation on cancer entities” value [2] was “HCC, CRC, HNSCC”.

In the case of “141 (FLDKVLVAA; listed as Homo sapiens) [compound 141]”, the “Presentation score AML” value (HLA-A*02 peptides) was “++”, the “Presentation score CLL” value (HLA-A*02 peptides) was “+” and the “Peptide Presentation on cancer entities” value [1] was “GC, NSCLC, PCA, CLL, OSCAR, UBC, RCC, AML, NHL”. For the same substance, the “Peptide Presentation on cancer entities” value [2] was “HCC, OC, UEC, BRCA, MEL, CRC, HNSCC”.

For “142 (ILVEGISTV; listed as Homo sapiens) [compound 142]”, the “Presentation score NSCLC” value (HLA-A*02 peptides) was “+++”, the “Presentation score PCA” value (HLA-A*02 peptides, prostate cancer and benign prostate hyperplasia (N = 39) vs panel of normal tissues (N = 262)) was “+” and the “Peptide Presentation on cancer entities” value [1] was “GB, NSCLC, PCA, OC, SCLC, BRCA, GBC_CCC”.

For “143 (ALLPELREV; listed as Homo sapiens) [compound 143]”, the “Presentation score GBC_CCC” value (HLA-A*02 peptides) was “+”, the “Presentation score GB” value (HLA-A*02 peptides) was “+” and the “Presentation score HCC” value (HLA-A*02 peptides) was “+”. The “Presentation score NSCLC” value (HLA-A*02 peptides) was “+”, the “Peptide Presentation on cancer entities” value [1] was “GB, GC, NSCLC, HCC, BRCA, GBC_CCC, RCC, CRC” and the “Peptide Presentation on cancer entities” value [2] was “OC, SCLC, AML, HNSCC”.

With “144 (ALLAFFPGL; listed as Homo sapiens) [compound 144]” the “Presentation score AML” value (HLA-A*02 peptides) was “+++”, the “Presentation score BRCA” value (HLA-A*02 peptides) was “+” and the “Presentation score CRC” value (HLA-A*02 peptides) was “+”. The “Presentation score OSCAR” value (HLA-A*02 peptides) was “+++”, the “Presentation score GC” value (HLA-A*02 peptides) was “++” and the “Presentation score GB” value (HLA-A*02 peptides) was “+++”. The “Presentation score NSCLC” value (HLA-A*02 peptides) was “++” and the “Peptide Presentation on cancer entities” value [1] was “GB, GC, NSCLC, OSCAR, OC, UBC, BRCA, MEL, CRC, PC, AML, NHL”.

For “145 (YLWATIQRI; listed as Homo sapiens) [compound 145]”, the “Presentation score AML” value (HLA-A*02 peptides) was “++”, the “Presentation score OSCAR” value (HLA-A*02 peptides) was “+” and the “Presentation score NSCLC” value (HLA-A*02 peptides) was “+”. The “Presentation score OC” value (HLA-A*02 peptides) was “+++”, the “Peptide Presentation on cancer entities” value [1] was “NSCLC, OSCAR, OC, AML” and the “Peptide Presentation on cancer entities” value [2] was “UEC”.

With “147 (YLMDDTVEI; listed as Homo sapiens) [compound 147]” the “Presentation score GBC_CCC” value (HLA-A*02 peptides) was “+++”, the “Presentation score OC” value (HLA-A*02 peptides) was “+++” and the “Peptide Presentation on cancer entities” value [1] was “OC, GBC_CCC”.

In the case of “149 (ILNTHITEL; listed as Homo sapiens) [compound 149]”, the “Presentation score NHL” value (HLA-A*02 peptides) was “++++”, the “Peptide Presentation on cancer entities” value [1] was “NHL” and the “Peptide Presentation on cancer entities” value [2] was “BRCA”.

For “151 (SVLDSTAKV; listed as Homo sapiens) [compound 151]”, the “Presentation score OSCAR” value (HLA-A*02 peptides) was “+”, the “Presentation score GC” value (HLA-A*02 peptides) was “+” and the “Presentation score OC” value (HLA-A*02 peptides) was “++”. For the same substance, the “Presentation score RCC” value (HLA-A*02 peptides, renal cell carcinoma (N = 20) vs panel of normal tissues (N = 262)) was “+”, the “Peptide Presentation on cancer entities” value [1] was “GC, NSCLC, OSCAR, OC, UBC, BRCA, RCC, CRC, NHL” and the “Peptide Presentation on cancer entities” value [2] was “HCC, UEC, GBC_CCC, MEL, HNSCC”.

“153 (FISERVEVV; listed as Homo sapiens) [compound 153]” was tested, and the “Presentation score CLL” value (HLA-A*02 peptides) was “+”, the “Presentation score OSCAR” value (HLA-A*02 peptides) was “+” and the “Presentation score NHL” value (HLA-A*02 peptides) was “++”. The “Presentation score OC” value (HLA-A*02 peptides) was “++”, the “Presentation score UBC” value (HLA-A*02 peptides) was “+” and the “Peptide Presentation on cancer entities” value [1] was “NSCLC, PCA, CLL, OSCAR, OC, UBC, NHL”. For the same substance, the “Peptide Presentation on cancer entities” value [2] was “SCLC, UEC”.

With “154 (RLLGTEFQV; listed as Homo sapiens) [compound 154]” the “Presentation score MEL” value (HLA-A*02 peptides) was “+” and the “Peptide Presentation on cancer entities” value [2] was “SCLC”.

In the case of “156 (ILGDLSHLL; listed as Homo sapiens) [compound 156]”, the “Presentation score PC” value (HLA-A*02 peptides, pancreatic cancer (N = 16) vs panel of normal tissues (N = 262)) was “++” and the “Peptide Presentation on cancer entities” value [1] was “NSCLC, PC”.

With “157 (TLTSLLAQA; listed as Homo sapiens) [compound 157]” the “Presentation score UBC” value (HLA-A*02 peptides) was “+”, the “Peptide Presentation on cancer entities” value [1] was “UBC” and the “Peptide Presentation on cancer entities” value [2] was “NSCLC, CRC, HNSCC”.

“229 (AILAHLNTV; listed as Homo sapiens) [compound 229]” was tested, and the “Presentation score AML” value (HLA-A*02 peptides) was “++++”, the “Presentation score BRCA” value (HLA-A*02 peptides) was “++++” and the “Presentation score CLL” value (HLA-A*02 peptides) was “++++”. The “Presentation score CRC” value (HLA-A*02 peptides) was “++++”, the “Presentation score OSCAR” value (HLA-A*02 peptides) was “++++” and the “Presentation score GB” value (HLA-A*02 peptides) was “++++”. For the same substance, the “Presentation score HCC” value (HLA-A*02 peptides) was “++++”, the “Presentation score NHL” value (HLA-A*02 peptides) was “++++” and the “Presentation score NSCLC” value (HLA-A*02 peptides) was “++++”. The “Presentation score OC” value (HLA-A*02 peptides) was “++++”, the “Presentation score SCLC” value (HLA-A*02 peptides, small cell lung cancer (N = 19) vs panel of normal tissues (N = 262)) was “++++” and the “Presentation score UBC” value (HLA-A*02 peptides) was “++++”. For the same substance, the “Peptide Presentation on cancer entities” value [1] was “GB, NSCLC, HCC, CLL, OSCAR, OC, SCLC, UBC, BRCA, CRC, AML, NHL” and the “Peptide Presentation on cancer entities” value [2] was “UEC, HNSCC”.

“233 (HLFDAFVSV; listed as Homo sapiens) [compound 233]” was tested, and the “Presentation score AML” value (HLA-A*02 peptides) was “++++”, the “Presentation score BRCA” value (HLA-A*02 peptides) was “++++” and the “Presentation score CRC” value (HLA-A*02 peptides) was “++++”. The “Presentation score NHL” value (HLA-A*02 peptides) was “++++”, the “Presentation score NSCLC” value (HLA-A*02 peptides) was “++++” and the “Presentation score UBC” value (HLA-A*02 peptides) was “++++”. For the same substance, the “Peptide Presentation on cancer entities” value [1] was “NSCLC, UBC, BRCA, CRC, AML, NHL” and the “Peptide Presentation on cancer entities” value [2] was “MEL”.

For “234 (LLSPHNPAL; listed as Homo sapiens) [compound 234]”, the “Presentation score BRCA” value (HLA-A*02 peptides) was “++++”, the “Presentation score CLL” value (HLA-A*02 peptides) was “++++” and the “Presentation score OSCAR” value (HLA-A*02 peptides) was “++++”. The “Presentation score NHL” value (HLA-A*02 peptides) was “++++”, the “Presentation score NSCLC” value (HLA-A*02 peptides) was “++++” and the “Presentation score OC” value (HLA-A*02 peptides) was “++++”. The “Presentation score UBC” value (HLA-A*02 peptides) was “++++”, the “Peptide Presentation on cancer entities” value [1] was “NSCLC, CLL, OSCAR, OC, UBC, BRCA, NHL” and the “Peptide Presentation on cancer entities” value [2] was “GB, HCC, SCLC, UEC, MEL, RCC”.

For “237 (ALAPHLDDA; listed as Homo sapiens) [compound 237]”, the “number of cancer tissues where the peptide was found to be presented” value [3] was 10, the “number of cell lines where the peptide was found to be presented” value [3] was 1 and the “Presentation score BRCA” value (HLA-A*02 peptides) was “++++”. The “Presentation score GB” value (HLA-A*02 peptides) was “++++”, the “Presentation score HCC” value (HLA-A*02 peptides) was “++++” and the “Presentation score MEL” value (HLA-A*02 peptides) was “++++”. For the same substance, the “Presentation score NSCLC” value (HLA-A*02 peptides) was “++++”, the “Presentation score OC” value (HLA-A*02 peptides) was “++++” and the “Presentation score UBC” value (HLA-A*02 peptides) was “++++”. The “Presentation score UEC” value (HLA-A*02 peptides) was “++++”, the “Peptide Presentation on cancer entities” value [1] was “GB, NSCLC, HCC, OC, UBC, UEC, BRCA, MEL” and the “Peptide Presentation on cancer entities” value [2] was “SCLC, AML”.

In the case of “238 (GLYERPTAA; listed as Homo sapiens) [compound 238]”, the “Presentation score AML” value (HLA-A*02 peptides) was “++”, the “Peptide Presentation on cancer entities” value [1] was “NSCLC, PCA, PC, AML” and the “Peptide Presentation on cancer entities” value [2] was “GC, MCC, OSCAR, CRC, NHL”.

“240 (YMGEEKLIASV; listed as Homo sapiens) [compound 240]” was tested, and the “Presentation score CLL” value (HLA-A*02 peptides) was “++”, the “Presentation score MEL” value (HLA-A*02 peptides) was “+” and the “Presentation score NSCLC” value (HLA-A*02 peptides) was “+”. For the same substance, the “Presentation score UBC” value (HLA-A*02 peptides) was “+” and the “Peptide Presentation on cancer entities” value [2] was “UEC, NHL”.

For “243 (FMADDIFSV; listed as Homo sapiens) [compound 243]”, the “Presentation score NHL” value (HLA-A*02 peptides) was “++++”, the “Peptide Presentation on cancer entities” value [1] was “NHL” and the “Peptide Presentation on cancer entities” value [2] was “SCLC”.
